Reference: doi:10.1101/870998
These are yes or no findings as the source states them, for the method shown. In cells and extracts the contact can be indirect. Where a sequence is shown, tags or fusion partners need not be part of it.

By UniProt entry, the sequences of proteins in these tests, tags left out.
UniProt Q15691: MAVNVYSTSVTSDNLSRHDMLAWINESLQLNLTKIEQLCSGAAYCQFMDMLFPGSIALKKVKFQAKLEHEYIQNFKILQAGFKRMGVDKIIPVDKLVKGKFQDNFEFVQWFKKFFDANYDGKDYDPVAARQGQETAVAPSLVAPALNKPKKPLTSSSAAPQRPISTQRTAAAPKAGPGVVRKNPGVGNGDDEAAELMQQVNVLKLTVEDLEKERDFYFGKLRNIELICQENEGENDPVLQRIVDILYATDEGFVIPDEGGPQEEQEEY

Experiments:
Test in all cases: co-IP
[1] = target: T1, GFP-iASPP-SRNN (UniProt Q8WUF5)
T1 sequence: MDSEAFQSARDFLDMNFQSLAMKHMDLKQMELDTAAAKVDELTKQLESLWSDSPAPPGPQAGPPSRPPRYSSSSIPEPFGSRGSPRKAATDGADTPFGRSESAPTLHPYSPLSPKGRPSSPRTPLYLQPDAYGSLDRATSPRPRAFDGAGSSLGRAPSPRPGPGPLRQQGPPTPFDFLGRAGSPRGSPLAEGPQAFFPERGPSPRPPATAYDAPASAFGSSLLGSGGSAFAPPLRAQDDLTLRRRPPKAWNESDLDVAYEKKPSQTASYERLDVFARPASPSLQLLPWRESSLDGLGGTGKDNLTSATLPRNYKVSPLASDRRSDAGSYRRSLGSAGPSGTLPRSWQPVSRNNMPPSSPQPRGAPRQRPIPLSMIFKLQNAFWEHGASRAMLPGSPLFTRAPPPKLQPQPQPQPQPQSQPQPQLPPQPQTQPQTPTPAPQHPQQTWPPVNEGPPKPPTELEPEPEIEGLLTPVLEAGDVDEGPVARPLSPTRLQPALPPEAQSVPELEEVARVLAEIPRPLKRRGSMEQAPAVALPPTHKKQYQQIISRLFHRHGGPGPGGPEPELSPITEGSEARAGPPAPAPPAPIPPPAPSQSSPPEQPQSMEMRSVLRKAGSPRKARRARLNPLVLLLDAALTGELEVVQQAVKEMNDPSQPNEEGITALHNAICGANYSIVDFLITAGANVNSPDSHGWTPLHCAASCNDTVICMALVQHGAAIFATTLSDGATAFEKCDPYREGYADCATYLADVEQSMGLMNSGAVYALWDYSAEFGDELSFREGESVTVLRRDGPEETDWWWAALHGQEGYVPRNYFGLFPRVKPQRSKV

[2] = target: T2, GFP-iASPP C-terminal region (Cter, 600-828), Q8WUF5; details: remark: other sources report otherwise
T2 chain: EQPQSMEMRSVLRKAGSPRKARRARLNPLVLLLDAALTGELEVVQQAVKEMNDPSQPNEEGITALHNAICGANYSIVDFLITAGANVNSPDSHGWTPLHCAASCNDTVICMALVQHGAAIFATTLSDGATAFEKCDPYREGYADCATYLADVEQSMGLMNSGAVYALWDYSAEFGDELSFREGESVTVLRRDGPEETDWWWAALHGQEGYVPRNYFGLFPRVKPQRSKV

[3] = target: T3, GFP-iASPP 1-290, Q8WUF5; details: remark: other sources report otherwise
T3 chain: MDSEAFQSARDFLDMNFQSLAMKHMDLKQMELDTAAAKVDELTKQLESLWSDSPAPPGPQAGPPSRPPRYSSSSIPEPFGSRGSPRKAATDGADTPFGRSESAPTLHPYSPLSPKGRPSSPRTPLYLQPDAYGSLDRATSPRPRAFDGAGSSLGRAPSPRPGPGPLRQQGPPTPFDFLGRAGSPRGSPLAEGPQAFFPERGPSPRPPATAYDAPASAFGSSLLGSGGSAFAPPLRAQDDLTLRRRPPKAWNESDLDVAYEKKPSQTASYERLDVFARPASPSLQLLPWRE

Strep-FLAG (SF)-tagged EB1 (from UniProt Q15691 1-268)
binding [1]: no binding

B1: SF-iASPP 1-290, Q8WUF5 1-290 (domain or fragment)
chain: MDSEAFQSARDFLDMNFQSLAMKHMDLKQMELDTAAAKVDELTKQLESLWSDSPAPPGPQAGPPSRPPRYSSSSIPEPFGSRGSPRKAATDGADTPFGRSESAPTLHPYSPLSPKGRPSSPRTPLYLQPDAYGSLDRATSPRPRAFDGAGSSLGRAPSPRPGPGPLRQQGPPTPFDFLGRAGSPRGSPLAEGPQAFFPERGPSPRPPATAYDAPASAFGSSLLGSGGSAFAPPLRAQDDLTLRRRPPKAWNESDLDVAYEKKPSQTASYERLDVFARPASPSLQLLPWRE
binding [2]: no binding

B2: SF-iASPP 600-828, Q8WUF5 600-828 (domain or fragment)
chain: EQPQSMEMRSVLRKAGSPRKARRARLNPLVLLLDAALTGELEVVQQAVKEMNDPSQPNEEGITALHNAICGANYSIVDFLITAGANVNSPDSHGWTPLHCAASCNDTVICMALVQHGAAIFATTLSDGATAFEKCDPYREGYADCATYLADVEQSMGLMNSGAVYALWDYSAEFGDELSFREGESVTVLRRDGPEETDWWWAALHGQEGYVPRNYFGLFPRVKPQRSKV
binding [3]: no binding
